Data as given in article PMC7090148 (2020).
Positions count from the first letter of the chain named. No constants are given. Whether binding was seen depends on the method and setting. In cells and extracts the contact can be indirect. Binding can be weak; no strength is given.

Tests used:
[1] = molecular target: T1, Mouse OFD1 G139S (mouse) (UniProt Q80Z25); assay: co-IP; OFD1 mutants co-expressed with TRAPPC8 or TRAPPC12; IP efficiency as ratio of immunoprecipitated TRAPPC8/OFD1 or TRAPPC12/OFD1; cell line and IP antibody not stated for this panel
T1 sequence: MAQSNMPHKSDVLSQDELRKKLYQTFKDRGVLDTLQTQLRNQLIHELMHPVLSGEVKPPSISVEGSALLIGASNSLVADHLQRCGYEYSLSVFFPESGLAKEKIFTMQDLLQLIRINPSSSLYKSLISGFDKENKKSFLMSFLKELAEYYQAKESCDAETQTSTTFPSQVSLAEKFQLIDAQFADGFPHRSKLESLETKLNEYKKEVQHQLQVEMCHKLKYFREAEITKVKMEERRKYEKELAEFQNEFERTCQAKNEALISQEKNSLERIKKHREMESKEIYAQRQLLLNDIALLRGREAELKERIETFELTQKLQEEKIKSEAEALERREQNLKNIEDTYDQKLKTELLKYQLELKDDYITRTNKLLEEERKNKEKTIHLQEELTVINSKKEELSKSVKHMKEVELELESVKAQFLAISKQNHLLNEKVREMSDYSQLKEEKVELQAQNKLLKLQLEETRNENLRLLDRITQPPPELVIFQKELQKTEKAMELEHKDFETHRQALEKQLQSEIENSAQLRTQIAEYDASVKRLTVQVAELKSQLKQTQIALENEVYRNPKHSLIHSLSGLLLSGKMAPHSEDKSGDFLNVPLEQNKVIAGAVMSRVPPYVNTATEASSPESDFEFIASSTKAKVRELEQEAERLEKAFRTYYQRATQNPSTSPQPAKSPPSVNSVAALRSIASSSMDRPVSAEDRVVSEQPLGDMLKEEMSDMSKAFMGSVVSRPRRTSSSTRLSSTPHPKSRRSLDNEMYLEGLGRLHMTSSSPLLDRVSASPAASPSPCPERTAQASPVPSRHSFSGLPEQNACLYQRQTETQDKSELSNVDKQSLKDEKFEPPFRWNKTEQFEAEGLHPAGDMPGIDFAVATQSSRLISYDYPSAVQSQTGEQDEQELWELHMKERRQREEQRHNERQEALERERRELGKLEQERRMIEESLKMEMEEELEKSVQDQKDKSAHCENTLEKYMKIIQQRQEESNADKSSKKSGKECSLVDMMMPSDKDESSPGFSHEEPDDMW

[2] = molecular target: T2, Mouse OFD1 A80T (mouse) (UniProt Q80Z25); assay: as above
T2 sequence: T1 sequence with A78T, S137G

NTAP-tagged TRAPPC8 (mouse)
binding [1]: binds | binding [2]: binds
